Data as given in patent publication US20110308790A1, “IN SITU METHANOGENESIS MODELING AND RISK ANALYSIS” (CONOCOPHILLIPS COMPANY, priority 2010, published 2011).

Experiment: dissolution of tank-derived sludge by NaOCl and acid
Settings: for After NaOCl (Δg): 6% NaOCl

Cl [HCl]
dissolution of sludge material (in words): not as effective

OCl [NaOCl, sodium hypochlorite]
dissolution of sludge material (in words): very effective in dissolving sludge material | After NaOCl (Δg) (incubation 10 min): 0.331 g | After NaOCl (Δg) (incubation 30 min): 0.174 g | After NaOCl (Δg) (incubation 60 min): 0.120 g

Where a name gives a salt, the structure may show the parent alone.
